Assay results: article PMC7819943, “Rice protein-binding microarrays: a tool to detect cis-acting elements near promoter regions in rice”
This is one part of the list.

Protein sequences, listed by entry. Tags and fused reporters are not part of them.
UniProt Q0JBA9, entry or part of it: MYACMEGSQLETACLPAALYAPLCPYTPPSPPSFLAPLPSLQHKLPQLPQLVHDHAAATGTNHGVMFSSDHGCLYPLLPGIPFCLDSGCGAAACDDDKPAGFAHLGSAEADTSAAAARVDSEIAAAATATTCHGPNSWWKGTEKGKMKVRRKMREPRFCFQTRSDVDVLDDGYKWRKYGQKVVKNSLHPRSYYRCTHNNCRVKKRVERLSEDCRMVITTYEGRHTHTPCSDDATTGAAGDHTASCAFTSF

Target: OsWRKY34 (Oryza sativa, UniProt Q0JBA9 1-250)
Assay: protein-binding microarray (RPBM); PBS, 2% BSA, 51.3 ng/ul salmon testes DNA, 50 uM zinc acetate, 200 nM TF, 25 C, 1 h; high values mean tight binding
Settings: protein: recombinant; tags: N-terminal polyhistidine and DsRed monomer fusion (pET32a); label: CyDye5-dUTP incorporated in the synthesized complementary strand; 3' TTTTT single-stranded linker to array surface; dsDNA, one strand shown
Procedure, shortened: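 The binding signal is fluorescence intensity per feature, in arbitrary units, read on an Axon 4000B scanner. Polyhistidine- and DsRed-tagged transcription factors (N-terminal fusions) from E. coli BL21-CodonPlus were purified on Ni–NTA and applied at 200 nM for 1 h at 25 °C to a double-stranded, BSA-blocked custom Agilent array in buffer with 50 µM zinc acetate.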

For “CGATGAGTTCTATAATTTTTTTGTTTATGATTTTTGCATTCGGAGTCACCTAGTGCAG”, which binding signal is on record?
Its binding signal is 8540 fluorescence intensity (a.u.).

For “GTTAATGCTATTTATCTCGTTCTCTCATTAAGCCACATCACGGAGTCACCTAGTGCAG”, which binding signal is on record?
The binding signal was 9890 fluorescence intensity (a.u.).

Which binding signal does the source give for “CTCATCTCATCATCCACCATCAGTCCGTGCAGTTTGGAGCCGGAGTCACCTAGTGCAG” here?
Its binding signal is 8720 fluorescence intensity (a.u.).

How did the binding signal turn out when “ATCTTTGCTCTTAGCTGCACCGGGTTCCTGGAAGGACCTGCGGAGTCACCTAGTGCAG” was run?
The binding signal was 9270 fluorescence intensity (a.u.).

How did the binding signal turn out when “CAAGAGGTTCTTTGAGAGCTACTCCATCGTTTCAAATTATCGGAGTCACCTAGTGCAG” was run?
Its binding signal is 8240 fluorescence intensity (a.u.).

With “CACCAACGCGTCCCCACCGTGTCGCCTCCTGATTGGTTGTCGGAGTCACCTAGTGCAG” as the sequence, how does the binding signal read?
The binding signal was 12100 fluorescence intensity (a.u.).

“TCAATAGGTCTTTTTTTTTCCTCCTTCCAAACATCATGAACGGAGTCACCTAGTGCAG” was tested. Which binding signal did it give?
Its binding signal is 9290 fluorescence intensity (a.u.).

“CTCCAATCCTGCATGAATATATTTGTGCCATTGCTATTTGCGGAGTCACCTAGTGCAG” was tested. Which binding signal did it give?
The binding signal was 8940 fluorescence intensity (a.u.).

“TTCAGTCGCCGCGGCGGCGTTGCTGCCGGCGGTGGCGGGGCGGAGTCACCTAGTGCAG” was tested. Which binding signal did it give?
The binding signal was 8740 fluorescence intensity (a.u.).

Which binding signal does the source give for “TGTGTGTGCTACCCCGTCATTGTTGCACTGCCGCCCTTCTCGGAGTCACCTAGTGCAG” here?
The binding signal was 10200 fluorescence intensity (a.u.).

Which binding signal does the source give for “CTCCAACGACTGCCACGATTGCGTCACCATCTTCGTCTTCCGGAGTCACCTAGTGCAG” here?
Its binding signal is 10800 fluorescence intensity (a.u.).

“GTTCGTATGCTTTTTTACTTGTTTTGAGTGCAACTGTTTGCGGAGTCACCTAGTGCAG” was tested. Which binding signal did it give?
The binding signal was 11100 fluorescence intensity (a.u.).

“CCTCTCCCTTCTCTCTTCTTCGTCCTCACTTCTCTCTTCTCGGAGTCACCTAGTGCAG” was tested. Which binding signal did it give?
The binding signal was 8370 fluorescence intensity (a.u.).

Which binding signal does the source give for “TATATTGGTGTAAATCGATGTTTGGTACTCCGATCCCGTTCGGAGTCACCTAGTGCAG” here?
The binding signal was 8340 fluorescence intensity (a.u.).

How did the binding signal turn out when “ATACAGGTCTCTTTCTTCTTTAATATATACACTGTAAATCCGGAGTCACCTAGTGCAG” was run?
Its binding signal is 8450 fluorescence intensity (a.u.).

“AGTTCACCACCACCGCCACGCGCGCGCTGTCTCCAAACACCGGAGTCACCTAGTGCAG” was tested. Which binding signal did it give?
The binding signal was 8250 fluorescence intensity (a.u.).

Which binding signal does the source give for “GCTGCATATAGTATTCCCACTGACAACCTCTCATACTTGTCGGAGTCACCTAGTGCAG” here?
The binding signal was 8620 fluorescence intensity (a.u.).

For “TTCCTAAGGTCTCTTCTTTTCTTGCTCTGTTCTGCTGCTTCGGAGTCACCTAGTGCAG”, which binding signal is on record?
Its binding signal is 8620 fluorescence intensity (a.u.).

“GGGGAGGGGAGGGGAAGATCTAGAACCGCGGGGAAGACGACGGAGTCACCTAGTGCAG” was tested. Which binding signal did it give?
The binding signal was 12200 fluorescence intensity (a.u.).

“AGTGCTGTGGGGAGGCGAACTCACCCTCATATTTAATTCTCGGAGTCACCTAGTGCAG” was tested. Which binding signal did it give?
The binding signal was 8030 fluorescence intensity (a.u.).

With “ATTATGATTCTGACCTAGCTAGAGCTTACAATCCCATGCCCGGAGTCACCTAGTGCAG” as the sequence, how does the binding signal read?
Its binding signal is 8760 fluorescence intensity (a.u.).

Which binding signal does the source give for “ACGCCACATCTCTCGCCAGCGAGCGCACCTCGTCCTCGTCCGGAGTCACCTAGTGCAG” here?
Its binding signal is 9420 fluorescence intensity (a.u.).

Which binding signal does the source give for “TTGGACCTAAAGTTGAGGAGTGGTTTGCTTGTTTAAATGTCGGAGTCACCTAGTGCAG” here?
The binding signal was 8310 fluorescence intensity (a.u.).

Which binding signal does the source give for “GCGGGCGCGGTCGCCGCGCTCAACCTCTCCGGGGCGGGGCCGGAGTCACCTAGTGCAG” here?
Its binding signal is 9450 fluorescence intensity (a.u.).

“CTACAAGGATCCATTGGAAGGCATTTTCCTTATTCCGCACCGGAGTCACCTAGTGCAG” was tested. Which binding signal did it give?
Its binding signal is 8130 fluorescence intensity (a.u.).

“GAGTTGTGCTGGTCCAGGTGTTTGGCTGCGTTGCAAGGTGCGGAGTCACCTAGTGCAG” was tested. Which binding signal did it give?
Its binding signal is 8440 fluorescence intensity (a.u.).

With “GCTATGATTGTCTTTAGGGTATCTAATAATTGTGGTTTGACGGAGTCACCTAGTGCAG” as the sequence, how does the binding signal read?
Its binding signal is 10600 fluorescence intensity (a.u.).

“TTTCTCGTTCCTATCGACGCCGGAGTCCACGCTGCTCATCCGGAGTCACCTAGTGCAG” was tested. Which binding signal did it give?
The binding signal was 8220 fluorescence intensity (a.u.).

“TCATTATCTTTCTCTCTTCATCTCTTGATCAGCTCTTGACCGGAGTCACCTAGTGCAG” was tested. Which binding signal did it give?
Its binding signal is 9560 fluorescence intensity (a.u.).

Which binding signal does the source give for “TCATTTGTCTCCAAGTCTCCACCACCTCCTTATGATCCAACGGAGTCACCTAGTGCAG” here?
Its binding signal is 9000 fluorescence intensity (a.u.).

With “CTTTGGTTAATTGTCGTCTTCTTCTCTCTCTCTGCATCCACGGAGTCACCTAGTGCAG” as the sequence, how does the binding signal read?
The binding signal was 12300 fluorescence intensity (a.u.).

For “ACCAAGCCGGCTTTTTTGACCACCCACAGCGCCATCCACACGGAGTCACCTAGTGCAG”, which binding signal is on record?
Its binding signal is 8240 fluorescence intensity (a.u.).

Which binding signal does the source give for “GGCCTCCACCGTCCGTTTCTCCGTCCCACGGCCCATCATCCGGAGTCACCTAGTGCAG” here?
The binding signal was 10400 fluorescence intensity (a.u.).

With “GAAGTCTTCTATTGCATTGTTTTATTCTTCACTTAGTGGTCGGAGTCACCTAGTGCAG” as the sequence, how does the binding signal read?
Its binding signal is 8230 fluorescence intensity (a.u.).

How did the binding signal turn out when “CTGTTACTGTTGATTTAGCGCGTTTTGCCTGTATAAATTTCGGAGTCACCTAGTGCAG” was run?
Its binding signal is 13700 fluorescence intensity (a.u.).

“ATATTCACCACGTCGTCTTCCTCGTCGTCGCCGCTCTATACGGAGTCACCTAGTGCAG” was tested. Which binding signal did it give?
The binding signal was 10600 fluorescence intensity (a.u.).

How did the binding signal turn out when “GTCTTCCCCATTGCGTCGAAGAGAACCATATTCCCAGTTTCGGAGTCACCTAGTGCAG” was run?
Its binding signal is 9220 fluorescence intensity (a.u.).

Which binding signal does the source give for “CAGGACCATGTTGTTGGTCGCGTTTCTGCGGTTCTGATTTCGGAGTCACCTAGTGCAG” here?
The binding signal was 9570 fluorescence intensity (a.u.).

With “GGAGGCCCAGATTCCGCGGCTCGCTTCGTCGTCTCGTCTACGGAGTCACCTAGTGCAG” as the sequence, how does the binding signal read?
Its binding signal is 10100 fluorescence intensity (a.u.).

“CTTGGTTTCTTGTTGTGCAACTCTCGTCGTCTCGTTCATCCGGAGTCACCTAGTGCAG” was tested. Which binding signal did it give?
Its binding signal is 11500 fluorescence intensity (a.u.).

“CATACGTTTCCTGTGATTCAATACACTTGCAATACTCTGACGGAGTCACCTAGTGCAG” was tested. Which binding signal did it give?
Its binding signal is 12900 fluorescence intensity (a.u.).

“GCTGCTTCCATCAATACAATACAACTAGTGATTTCGTTGCCGGAGTCACCTAGTGCAG” was tested. Which binding signal did it give?
Its binding signal is 8040 fluorescence intensity (a.u.).

For “GCTGTCTTAGCTCTGAAAATTTTGTATTGTTCATTTGAGGCGGAGTCACCTAGTGCAG”, which binding signal is on record?
Its binding signal is 9170 fluorescence intensity (a.u.).

With “GATGTCCACTTCTGCACTTATATATTTTTATTTATTTATTCGGAGTCACCTAGTGCAG” as the sequence, how does the binding signal read?
Its binding signal is 11700 fluorescence intensity (a.u.).

Which binding signal does the source give for “CCTCTTCTCATCACCACTCGTCTCCTCTTCTCGCTTCGCCCGGAGTCACCTAGTGCAG” here?
Its binding signal is 8400 fluorescence intensity (a.u.).

How did the binding signal turn out when “CGGATTCGCCACAGATCTCTCGCCCCACGTCGCCGCCCTCCGGAGTCACCTAGTGCAG” was run?
The binding signal was 10200 fluorescence intensity (a.u.).

For “CTTATCCACCATCAATGTTCCTGACTTCAATTTTTCGTTGCGGAGTCACCTAGTGCAG”, which binding signal is on record?
Its binding signal is 10500 fluorescence intensity (a.u.).

“AAACCCTAGCTCCGGATTCTTCTCCTCTCCTCCTTTCTTCCGGAGTCACCTAGTGCAG” was tested. Which binding signal did it give?
Its binding signal is 8070 fluorescence intensity (a.u.).

“GATGCATTTATCCCCTGTGCGTTGTTCGGTTGTTGATCCGCGGAGTCACCTAGTGCAG” was tested. Which binding signal did it give?
Its binding signal is 9820 fluorescence intensity (a.u.).

With “ATAGTACTGTTATCTGTTGGCACTTAGGGCTTTTTGGCGACGGAGTCACCTAGTGCAG” as the sequence, how does the binding signal read?
Its binding signal is 8940 fluorescence intensity (a.u.).

Which binding signal does the source give for “ATTATCTTTTTTTCGATGCCTTACAACAAATACGCATTCTCGGAGTCACCTAGTGCAG” here?
The binding signal was 10500 fluorescence intensity (a.u.).

“CTTATTAGACCCTGTTTAGTTCCGCGAAAATTTTTCTCAACGGAGTCACCTAGTGCAG” was tested. Which binding signal did it give?
Its binding signal is 8330 fluorescence intensity (a.u.).

For “TCCAGTTGTTTTGGATAGGCTTGTAGCTAGTCAACTATATCGGAGTCACCTAGTGCAG”, which binding signal is on record?
The binding signal was 9450 fluorescence intensity (a.u.).

How did the binding signal turn out when “CTACCTTTTGTTCTTGCTTTTTTTTAATTTTTTTTGGGTACGGAGTCACCTAGTGCAG” was run?
Its binding signal is 8910 fluorescence intensity (a.u.).
